Results taken from PubChem BioAssay AID2685 (National Center for Advancing Translational Sciences (NCATS), 2010).
Some of the results follow. The main result of the screen is listed elsewhere. These columns were measured beside it and carry no call. The list favours compounds with an active or inconclusive main result. Words in brackets tell the shape of the fitted curve; partial curves, single points and poor fits give uncertain potencies.

Experiment: qHTS Assay for Lipid Storage Modulators in Drosophila S3 Cells;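 on cell number change: cells counted by Cell Tracker Red CMTPX staining in the red channel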
Details: BODIPY lipid droplet fluorescence, 18-24 h; for cell number change: measured here: cell count max response, cells fed with added oleic acid
How it was run: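 Laser-scanning cytometry quantifies lipid droplet accumulation (500–530 nm total intensity; droplet/cell object ratio) in oleic acid-fed (400 uM added) Drosophila S3 cells treated with a concentration series. 20 uM Triacsin C defined 100% inhibition.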

[1] = measured here: lipid fluorescence (Fed channel) AC50, cells fed with added oleic acid
[2] = measured here: cell number channel AC50, cells fed with added oleic acid

| Compound | cell number change [%] | AC50 [1] | AC50 [2] |
| --- | --- | --- | --- |
| COc1ccc2[nH]c(C(=O)N/N=C/c3ccc(O)cc3O)cc2c1 | -24.8 | 0.082 µM [falling, full curve] |  |
| O=C(COC(=O)CCC(=O)c1ccc(F)cc1)Nc1ccccc1 |  |  | 5.8 µM [rising, single point] |
| COc1ccc(CCN2C(=O)CSC2=Nc2ccc(C)cc2C)cc1OC | 7.17 | 6.51 µM [rising, single point] |  |
| C=CCN(CC=C)CCOc1cccc(Oc2ccccc2)c1 | -1.47 |  |  |
| O=C(CS(=O)(=O)Cc1ccccc1)Nc1nnc(C2CCCCC2)s1 | -3.85 | 0.13 µM [falling, full curve, poor fit] | 0.731 µM [falling, full curve] |
| O=S(=O)(c1ccc2ccccc2c1)N(CC1CO1)c1ccccc1 (centres undefined) | -3.1 | 10.3 µM [falling, partial curve, poor fit] |  |
| COC(=O)C1(C)NC(c2ccc(OC)cc2)C2C(=O)N(c3ccccc3)C(=O)C21 (centres undefined) | 25 |  |  |
| Clc1ccccc1C1CC(c2ccccc2)Nc2ncnn21 (centres undefined) |  |  | 0.13 µM [rising, full curve, poor fit] |
| CCN1C(=O)CC(N2CCC(Nc3ccc(OC)cc3)CC2)C1=O (centres undefined) | -3.99 |  | 1.46 µM [falling, partial curve] |
| COc1ccccc1N1CCN(C2CCCN(C(=O)CCc3c(C)noc3C)C2)CC1 (centres undefined) | 0.917 | 29.1 µM [falling, single point] |  |
| CCOC(=O)CC1Sc2ccccc2NC1=S (centres undefined) | 28.5 |  |  |
| COC(=O)c1ccc(CSc2nnc(Nc3cccc(OC)c3)s2)o1 | 20.4 | 2.31 µM [rising, single point] |  |
| CCN(CC)c1ccc(/C=N\N2CCN(Cc3ccc(C)cc3)CC2)cc1 | -74.1 |  | 29.1 µM [falling, single point] |
| Cc1nnc(NC(=O)c2oc3c(ccc4ccccc43)c2C)s1 | -6.81 | 29.1 µM [falling, single point] |  |
| COc1ccc(-c2nn(-c3ccccc3)cc2/C=N/O)cc1 | -46.8 | 23.1 µM [falling, single point] | 20.6 µM [falling, single point] |
| Brc1ccc(CSc2nnc(Cc3c[nH]c4ccccc34)o2)cc1 | -0.383 | 29.1 µM [rising, single point] |  |
| COc1ccccc1-c1noc(-c2ccco2)n1 |  | 0.92 µM [falling, full curve, poor fit] | 0.259 µM [falling, full curve, poor fit] |
| CCOC(=O)N1CCN(C(=O)C2CC(c3cc(OC)ccc3OC)=NO2)CC1 (centres undefined) | -45.6 | 1.46 µM [falling, full curve] | 8.2 µM [falling, partial curve, poor fit] |

Some of these compounds in order of number of heavy atoms, low to high.

| Compound | cell number change [%] | AC50 [1] | AC50 [2] |
| --- | --- | --- | --- |
| O=S(=O)(c1ccc2ccccc2c1)N(CC1CO1)c1ccccc1 (centres undefined) | -3.1 | 10.3 µM [falling, partial curve, poor fit] |  |
| COC(=O)c1ccc(CSc2nnc(Nc3cccc(OC)c3)s2)o1 | 20.4 | 2.31 µM [rising, single point] |  |
| COc1ccccc1N1CCN(C2CCCN(C(=O)CCc3c(C)noc3C)C2)CC1 (centres undefined) | 0.917 | 29.1 µM [falling, single point] |  |
